Data from PubChem BioAssay AID248 (DTP/NCI, 2004).
The list is a part of this screen's results and no random one: it gathers tests that were run many times, whatever their T/C, doses with no T/C, and many T/C values between a quarter and a half above the control. Other doses and runs of a compound stand elsewhere. T/C gives the treated animals as a percentage of the vehicle group. Some entries give survivors of the animals treated and no T/C: the source holds a T/C of zero for them, seemingly a mark for toxic or unscored doses. Some doses without a T/C left all or most animals alive at the check, yet need not have been tolerated: the source hardly ever lists a survival T/C far under the control, and the zero likely stands for such cases as well. Survivors were counted at the toxicity check, usually on the fifth day, unless a day is given; later deaths do not show. Schedule codes are those of the source, taken here to give the interval after Q, in days (D) or hours (H), and the number of doses after X. Some doses were run more than once; the results are listed from low to high. Some schedules carry Z or #; the key to these is not given. Where survival is the endpoint, this PubChem deposit counts one and a half times the control or more as active, and values a quarter to a half above the control carry no call in these data; other NCI protocols may use other cut-offs. Brackets with × stand for listed records that agree. Some T/C values carry the count of animals alive at the toxicity check (mostly the fifth day); without a count, all were alive then.

System: L1210 leukemia ip in BDF1 mice, survival T/C
Assay: NCI In Vivo Anticancer Drug Screen. Data for tumor model L1210 Leukemia (intraperitoneal) in B6D2F1 (BDF1) mice
Settings: T/C endpoint: mean survival time, higher T/C = longer survival
[1] = dose: 250.0 mg/kg/injection, schedule: Q01DX005 (ip), vehicle: clinical formulation

CN(C)/N=N/c1nc[nH]c1C(N)=O
T/C (dose: 105.0 mg/kg/injection, schedule: Q01DX015 (ip), vehicle: carboxymethylcellulose (CMC), evaluated on day 45): 140 % of control
T/C (dose: 108.0 mg/kg/injection, schedule: Q01DX009 (ip), vehicle: steroid suspending solution): 134 % of control (2×)
T/C (dose: 108.0 mg/kg/injection, schedule: Q01DX019 (ip), vehicle: steroid suspending solution, evaluated on day 5): 143 % of control
T/C (dose: 108.0 mg/kg/injection, schedule: Q01DX019 (ip), vehicle: steroid suspending solution, evaluated on day 30): 139 % of control
T/C (dose: 108.0 mg/kg/injection, schedule: Q01DX Z (ip), vehicle: steroid suspending solution, evaluated on day 33): 134 % of control
T/C (dose: 108.0 mg/kg/injection, schedule: Q01DX Z (ip), vehicle: steroid suspending solution, evaluated on day 41): 134 % of control
T/C (dose: 108.0 mg/kg/injection, schedule: Q02DX010 (ip), vehicle: steroid suspending solution, evaluated on day 5): 134 % of control
T/C (dose: 108.0 mg/kg/injection, schedule: Q02DX010 (ip), vehicle: steroid suspending solution, evaluated on day 30): 131 % of control
T/C (dose: 108.0 mg/kg/injection, schedule: Q## X009 (ip), vehicle: steroid suspending solution): 126 % of control
T/C (dose: 116.0 mg/kg/injection, schedule: Q04DX002 (ip), vehicle: carboxymethylcellulose (CMC)): 110, 111, 112, 120 % of control
T/C (dose: 120.0 mg/kg/injection, schedule: Q01DX Z (ip), vehicle: saline): 148 % of control
T/C (dose: 125.0 mg/kg/injection, schedule: Q01DX001 (ip), vehicle: saline with Tween-80): 125 % of control
T/C (dose: 125.0 mg/kg/injection, schedule: Q01DX005 (ip), vehicle: clinical formulation): 98, 141, 150, 154, 162 (2×), 163, 169 % of control
T/C (dose: 125.0 mg/kg/injection, schedule: Q01DX Z (ip), vehicle: carboxymethylcellulose (CMC)): 143 % of control
T/C (dose: 128.0 mg/kg/injection, schedule: Q01DX005 (ip), vehicle: water): 133 % of control
T/C (dose: 137.0 mg/kg/injection, schedule: Q01DX001 (ip), vehicle: carboxymethylcellulose (CMC)): 131 % of control
T/C (dose: 150.0 mg/kg/injection, schedule: Q01DX001 (ip), vehicle: carboxymethylcellulose (CMC)): 135 % of control
T/C (dose: 150.0 mg/kg/injection, schedule: Q01DX009 (ip), vehicle: carboxymethylcellulose (CMC), evaluated on day 5): 142 % of control
T/C (dose: 150.0 mg/kg/injection, schedule: Q01DX009 (ip), vehicle: carboxymethylcellulose (CMC), evaluated on day 45): 142 % of control
T/C (dose: 150.0 mg/kg/injection, schedule: Q01DX009 (ip), vehicle: saline with Tween-80): 136 % of control
T/C (dose: 150.0 mg/kg/injection, schedule: Q01DX Z (ip), vehicle: carboxymethylcellulose (CMC)): 130 % of control [5 of 6 alive]
T/C (dose: 157.0 mg/kg/injection, schedule: Q01DX015 (ip), vehicle: carboxymethylcellulose (CMC), evaluated on day 5): 139 % of control
T/C (dose: 157.0 mg/kg/injection, schedule: Q01DX015 (ip), vehicle: carboxymethylcellulose (CMC), evaluated on day 45): 139 % of control
T/C (dose: 178.0 mg/kg/injection, schedule: Q01DX005 (ip), vehicle: water, evaluated on day 5): 144 % of control
T/C (dose: 178.0 mg/kg/injection, schedule: Q01DX005 (ip), vehicle: water, evaluated on day 30): 144 % of control
T/C (dose: 180.0 mg/kg/injection, schedule: Q01DX009 (ip), vehicle: steroid suspending solution): 148 and 149 % of control
T/C (dose: 180.0 mg/kg/injection, schedule: Q01DX019 (ip), vehicle: steroid suspending solution): 149 % of control
T/C (dose: 180.0 mg/kg/injection, schedule: Q01DX Z (ip), vehicle: carboxymethylcellulose (CMC)): 142 % of control
T/C (dose: 180.0 mg/kg/injection, schedule: Q01DX Z (ip), vehicle: steroid suspending solution): 148 % of control
T/C (dose: 180.0 mg/kg/injection, schedule: Q02DX010 (ip), vehicle: steroid suspending solution, evaluated on day 5): 143 % of control
T/C (dose: 180.0 mg/kg/injection, schedule: Q02DX010 (ip), vehicle: steroid suspending solution, evaluated on day 30): 139 % of control
T/C (dose: 180.0 mg/kg/injection, schedule: Q ##X009 (ip), vehicle: steroid suspending solution): 133 % of control
T/C (dose: 180.0 mg/kg/injection, schedule: Q## X009 (ip), vehicle: steroid suspending solution, evaluated on day 5): 143 % of control
T/C (dose: 180.0 mg/kg/injection, schedule: Q## X009 (ip), vehicle: steroid suspending solution, evaluated on day 30): 130 and 139 % of control
T/C (dose: 182.0 mg/kg/injection, schedule: Q01DX009 (ip), vehicle: saline with Tween-80, evaluated on day 5): 135 and 144 % of control
T/C (dose: 182.0 mg/kg/injection, schedule: Q01DX009 (ip), vehicle: saline with Tween-80, evaluated on day 60): 135 and 144 % of control
T/C (dose: 194.0 mg/kg/injection, schedule: Q01DX009 (ip), vehicle: carboxymethylcellulose (CMC)): 148 % of control
T/C (dose: 200.0 mg/kg/injection, schedule: Q01DX001 (ip), vehicle: carboxymethylcellulose (CMC)): 142 % of control
T/C (dose: 200.0 mg/kg/injection, schedule: Q01DX009 (ip), vehicle: Klucel (hydroxypropylcellulose) (HPC), evaluated on day 20): 147 % of control [5 of 6 alive]
T/C (dose: 200.0 mg/kg/injection, schedule: Q01DX009 (ip), vehicle: Klucel (hydroxypropylcellulose) (HPC), evaluated on day 30): 114, 115, 120 (2×), 122, 124, 125, 142, 144, 146, 158, 161, 185 % of control
T/C (dose: 200.0 mg/kg/injection, schedule: Q01DX009 (ip), vehicle: water): 149 % of control
survivor count (dose: 200.0 mg/kg/injection, schedule: Q01DX010 (ip), vehicle: clinical formulation): 6 of 6
T/C (dose: 200.0 mg/kg/injection, schedule: Q01DX Z (ip), vehicle: carboxymethylcellulose (CMC)): 135 and 147 % of control
T/C (dose: 200.0 mg/kg/injection, schedule: Q01DX Z (oral), vehicle: carboxymethylcellulose (CMC)): 142 % of control
T/C (dose: 200.0 mg/kg/injection, schedule: Q01DX Z (sc), vehicle: carboxymethylcellulose (CMC)): 130 % of control
T/C (dose: 200.0 mg/kg/injection, schedule: Q04DX002 (ip), vehicle: Klucel (hydroxypropylcellulose) (HPC)): 129 % of control
T/C (dose: 200.0 mg/kg/injection, schedule: Q04DX003 (ip), vehicle: Klucel (hydroxypropylcellulose) (HPC)): 107, 108, 109, 117, 121, 131, 138 % of control
T/C (dose: 200.0 mg/kg/injection, schedule: Q04DX003 (ip), vehicle: other): 128 % of control
T/C (dose: 200.0 mg/kg/injection, schedule: Q07DX003 (oral), vehicle: other): 125 % of control
T/C (dose: 200.0 mg/kg/injection, schedule: Q## X005 (ip), vehicle: carboxymethylcellulose (CMC)): 142 % of control
survivor count (dose: 200.0 mg/kg/injection, schedule: Q#A X Z (ip), vehicle: carboxymethylcellulose (CMC)): 6 of 6
T/C (dose: 232.0 mg/kg/injection, schedule: Q04DX002 (ip), vehicle: carboxymethylcellulose (CMC)): 115, 116, 123, 125 % of control
T/C (dose: 250.0 mg/kg/injection, schedule: Q01DX001 (ip), vehicle: carboxymethylcellulose (CMC)): 125 and 129 % of control
T/C [1]: 92, 100, 101 % of control [4 of 6 alive]
survivor count [1]: 4 of 6, 5 of 6, 6 of 6
T/C (dose: 256.0 mg/kg/injection, schedule: Q01DX005 (ip), vehicle: water): 149 % of control
T/C (dose: 296.0 mg/kg/injection, schedule: Q01DX001 (ip), vehicle: carboxymethylcellulose (CMC), evaluated on day 5): 98 and 123 % of control
T/C (dose: 296.0 mg/kg/injection, schedule: Q01DX001 (ip), vehicle: carboxymethylcellulose (CMC), evaluated on day 45): 99 and 123 % of control
T/C (dose: 300.0 mg/kg/injection, schedule: Q01DX009 (ip), vehicle: saline with Tween-80): 126 % of control
T/C (dose: 300.0 mg/kg/injection, schedule: Q01DX009 (ip), vehicle: steroid suspending solution): 143 % of control
survivor count (dose: 300.0 mg/kg/injection, schedule: Q01DX Z (ip), vehicle: carboxymethylcellulose (CMC)): 5 of 6
T/C (dose: 300.0 mg/kg/injection, schedule: Q01DX Z (ip), vehicle: steroid suspending solution): 143 % of control [7 of 8 alive]
T/C (dose: 300.0 mg/kg/injection, schedule: Q02DX009 (ip), vehicle: steroid suspending solution, evaluated on day 5): 135 % of control
T/C (dose: 300.0 mg/kg/injection, schedule: Q02DX009 (ip), vehicle: steroid suspending solution, evaluated on day 30): 132 % of control
T/C (dose: 300.0 mg/kg/injection, schedule: Q## X009 (ip), vehicle: steroid suspending solution): 147 % of control
T/C (dose: 364.0 mg/kg/injection, schedule: Q01DX009 (ip), vehicle: saline with Tween-80, evaluated on day 5): 138 and 160 % of control
T/C (dose: 364.0 mg/kg/injection, schedule: Q01DX009 (ip), vehicle: saline with Tween-80, evaluated on day 60): 138 and 160 % of control
T/C (dose: 400.0 mg/kg/injection, schedule: Q01DX001 (ip), vehicle: carboxymethylcellulose (CMC)): 139 % of control
T/C (dose: 400.0 mg/kg/injection, schedule: Q01DX001 (ip), vehicle: water): 125 % of control
survivor count (dose: 400.0 mg/kg/injection, schedule: Q01DX006 (iv), vehicle: carboxymethylcellulose (CMC)): 0 of 6
T/C (dose: 400.0 mg/kg/injection, schedule: Q01DX009 (ip), vehicle: Klucel (hydroxypropylcellulose) (HPC), evaluated on day 20): 100 % of control
T/C (dose: 400.0 mg/kg/injection, schedule: Q01DX009 (ip), vehicle: Klucel (hydroxypropylcellulose) (HPC), evaluated on day 30): 94, 96, 109, 115, 125, 143, 144, 150, 154, 184 % of control
survivor count (dose: 400.0 mg/kg/injection, schedule: Q01DX009 (ip), vehicle: Klucel (hydroxypropylcellulose) (HPC)): 2 of 6 and 4 of 6
survivor count (dose: 400.0 mg/kg/injection, schedule: Q01DX009 (ip), vehicle: other): 0 of 6
T/C (dose: 400.0 mg/kg/injection, schedule: Q01DX009 (ip), vehicle: water): 126 % of control [9 of 10 alive]
survivor count (dose: 400.0 mg/kg/injection, schedule: Q01DX Z (ip), vehicle: carboxymethylcellulose (CMC)): 4 of 6
T/C (dose: 400.0 mg/kg/injection, schedule: Q04DX002 (ip), vehicle: Klucel (hydroxypropylcellulose) (HPC)): 147 % of control
T/C (dose: 400.0 mg/kg/injection, schedule: Q04DX003 (ip), vehicle: Klucel (hydroxypropylcellulose) (HPC)): 104, 109 (2×), 110, 114, 142 [5 of 6 alive], 143 % of control
T/C (dose: 400.0 mg/kg/injection, schedule: Q04DX003 (ip), vehicle: other): 130 and 141 % of control
T/C (dose: 400.0 mg/kg/injection, schedule: Q04DX003 (ip), vehicle: water): 147 % of control
T/C (dose: 400.0 mg/kg/injection, schedule: Q07DX003 (ip), vehicle: other): 132 % of control
T/C (dose: 400.0 mg/kg/injection, schedule: Q07DX003 (oral), vehicle: other): 135 % of control
